Laboratory results as given in publication PMC4081063, “The conformational state of the nucleosome entry–exit site modulates TATA box-specific TBP binding”.

Chains of the proteins cited; added tags and fusions are not shown. A line that says so, or that is headed by a name, gives the form on record, which may keep a tag or linker.
UniProt P20226, whole entry: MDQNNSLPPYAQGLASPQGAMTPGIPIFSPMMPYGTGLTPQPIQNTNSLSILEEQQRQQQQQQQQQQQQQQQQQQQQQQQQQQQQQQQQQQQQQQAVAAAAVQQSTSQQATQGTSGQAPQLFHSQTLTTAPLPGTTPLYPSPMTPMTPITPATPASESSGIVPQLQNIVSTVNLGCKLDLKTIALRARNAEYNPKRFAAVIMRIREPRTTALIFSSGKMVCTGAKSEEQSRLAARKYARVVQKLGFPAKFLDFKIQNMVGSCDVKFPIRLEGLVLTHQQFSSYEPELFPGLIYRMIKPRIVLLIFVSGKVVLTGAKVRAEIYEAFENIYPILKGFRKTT
TBP (human TATA binding protein) + TFIIA (alpha/beta and gamma subunits), one chain, as listed by the source, chain 1 of 3: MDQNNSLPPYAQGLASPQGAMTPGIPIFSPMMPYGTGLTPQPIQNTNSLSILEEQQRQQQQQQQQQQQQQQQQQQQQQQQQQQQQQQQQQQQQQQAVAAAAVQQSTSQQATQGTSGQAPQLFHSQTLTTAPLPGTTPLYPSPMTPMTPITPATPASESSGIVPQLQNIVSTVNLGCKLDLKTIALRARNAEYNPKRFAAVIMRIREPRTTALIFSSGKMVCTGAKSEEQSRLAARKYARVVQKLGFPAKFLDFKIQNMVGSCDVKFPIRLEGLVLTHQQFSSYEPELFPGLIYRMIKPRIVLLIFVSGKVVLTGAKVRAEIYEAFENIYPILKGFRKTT
TBP (human TATA binding protein) + TFIIA (alpha/beta and gamma subunits), one chain, as listed by the source, chain 2 of 3: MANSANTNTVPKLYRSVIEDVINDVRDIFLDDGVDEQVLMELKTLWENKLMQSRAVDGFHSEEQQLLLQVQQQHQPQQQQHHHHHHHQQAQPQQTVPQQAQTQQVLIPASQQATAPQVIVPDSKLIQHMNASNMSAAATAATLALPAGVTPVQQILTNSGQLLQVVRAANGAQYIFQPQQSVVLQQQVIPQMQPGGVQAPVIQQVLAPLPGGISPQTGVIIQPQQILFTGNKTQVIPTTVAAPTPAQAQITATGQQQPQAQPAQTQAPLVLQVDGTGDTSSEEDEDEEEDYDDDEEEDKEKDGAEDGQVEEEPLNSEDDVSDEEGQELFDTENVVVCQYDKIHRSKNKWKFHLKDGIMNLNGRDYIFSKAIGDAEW
TBP (human TATA binding protein) + TFIIA (alpha/beta and gamma subunits), one chain, as listed by the source, chain 3 of 3: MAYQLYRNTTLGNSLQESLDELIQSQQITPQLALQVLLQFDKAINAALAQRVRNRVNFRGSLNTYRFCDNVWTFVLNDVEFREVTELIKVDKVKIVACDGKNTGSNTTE

Key:
[1] = tested on: TBP (human TATA binding protein) + TFIIA (alpha/beta and gamma subunits); assay: bulk FRET; conditions: 20 mM Tris pH 7.9, 4 mM MgCl2, 1 mM DTT, 5% glycerol, 5-150 mM KCl as indicated, 1 nM labeled DNA (1-5 nM in Results), 20 min, 25 C (37 C tested), recombinant protein
[2] = tested on: TBP (human TATA binding protein) + TFIIA (alpha/beta and gamma subunits); assay: spFRET; conditions: 50 mM KCl, 20 mM Tris pH 7.9, 4 mM MgCl2, 1 mM DTT, 5% glycerol, 5-150 mM KCl as indicated, 1 nM labeled DNA (1-5 nM in Results), 20 min, 25 C (37 C tested), recombinant protein
[3] = biological target: TBP (human TATA binding protein) (Homo sapiens) (UniProt P20226); assay: competition with a labelled probe; conditions: 0 and 50 mM KCl, equimolar to TBP, removes biphasic off-site binding on TATA-14I; 20 mM Tris pH 7.9, 4 mM MgCl2, 1 mM DTT, 5% glycerol, 5-150 mM KCl as indicated, 1 nM labeled DNA (1-5 nM in Results), 20 min; 25 C (37 C tested); recombinant protein; label: unlabeled
[4] = biological target: TBP (human TATA binding protein) (Homo sapiens) (UniProt P20226); assay: spFRET; conditions: 100 nM TBP (legend, text says 200 nM), no broadening; 20 mM Tris pH 7.9, 4 mM MgCl2, 1 mM DTT, 5% glycerol, 5-150 mM KCl as indicated, 1 nM labeled DNA (1-5 nM in Results), 20 min; 25 C (37 C tested); recombinant protein; label: donor and acceptor FRET pair

GGCTATAAAAGGGG (double strand) [TATA-14E]
binding result ([1]; all KCl concentrations, very tight): binds | binding result ([2]; higher affinity than TBP alone): binds

GGTGCCGAGGCCGTCAATTGCTCGTAGACAGC (double strand) [TATA-less competitor]
binding result [3]: binds

TGGGGTATAAAAGGGGGTGGACACGTG (double strand) [TATA-18I]
binding result ([2]; 200 nM, single species): binds

TGGTATAAAAGGGA / CACGTGTCCGCTCCCTTTTATACCA [TATA-14Iss]
binding result [4]: binds

TGGTATAAAAGGGTGCGGACACGTG (double strand) [TATA-14I]
binding result ([1]; varying KCl, biphasic drop subdued): binds

The exact form of at least one protein or probe is not confirmed. For part of these data: At least one verdict was read from the data and is not stated in words by the source.
